Data: the supplement of paper PMC10727501
The list shows a part of the results. Single values are uncertain here, since repeats match poorly.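 Free-swimming zebrafish larvae were assessed for O-bend response probability to dark flashes (naive: first five; training: remaining flashes across four 60-flash blocks; test: later 60-flash block) and for OMR turning toward alternating leftward/rightward LED motion. Six treated larvae were compared against sixty 0.1% DMSO controls; hits required |SSMD|≥2.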

test system: Danio rerio larvae (5 dpf, TLF); test: OMR-Perf (SSMD vs DMSO vehicle); higher = higher than vehicle (e.g. higher dark-flash O-bend response probability, or better optomotor performance); conditions: 10 µM; pre-incubation: 30-90 min

SMILES | OMR-Perf
COc1cc([C@H]2Oc3cc([C@@H]4Oc5cc(O)cc(O)c5C(=O)[C@@H]4O)ccc3O[C@@H]2CO)ccc1O [Silibinin] | 0.247
Nc1nc(Cl)nc2c1ncn2[C@H]1C[C@H](O)[C@@H](CO)O1 [Cladribine] | 0.0236
Cc1c(Cl)cccc1Nc1ccccc1C(=O)O [Tolfenamic Acid] | -0.278
CC(CNC(=O)c1cccnc1)NC(=O)c1cccnc1 (configuration not stated) [Nicaraven] | -0.304
Cl.c1ccc2c(CC3=NCCN3)cccc2c1 [Naphazoline HCl] | 0.261
C[C@@]12CCC3=C4CCC(=O)C=C4CC[C@H]3[C@@H]1CC[C@@]2(O)CC#N [Dienogest] | -0.894
O.O.O=c1c(O)c(-c2ccc(O)c(O)c2)oc2cc(O)cc(O)c12 [Quercetin Dihydrate] | -0.342
COc1cc(Nc2c(C#N)cnc3cc(OCCCN4CCN(C)CC4)c(OC)cc23)c(Cl)cc1Cl [Bosutinib (SKI-606)] | 0.539
Cl.N=C(N)NCCCC(N)C(=O)O (stereo in doubt) [L-Arginine HCl] | 0.498
CN1CC[C@H](c2c(O)cc(O)c3c(=O)cc(-c4ccccc4Cl)oc23)[C@H](O)C1.Cl [Flavopiridol HCl] | -0.512
COC(=O)C1=CO[C@@H](O[C@@H]2O[C@H](CO)[C@@H](O)[C@@H](O)[C@H]2O)[C@H]2C(CO)=CC[C@H]12 [Geniposide] | 0.04
Cc1cc(Nc2cc(N3CCN(C)CC3)nc(Sc3ccc(NC(=O)C4CC4)cc3)n2)n[nH]1 [VX-680 (Tozasertib, MK-0457)] | -0.0534

test system: Danio rerio larvae (5 dpf, TLF); test: Prob-Test (SSMD vs DMSO vehicle); higher = higher than vehicle (e.g. higher dark-flash O-bend response probability, or better optomotor performance); conditions: 10 µM; pre-incubation: 30-90 min

SMILES | Prob-Test
O=C(C1CCCCC1)N1CC(=O)N2CCc3ccccc3C2C1 (configuration not stated) [Praziquantel] | 0.0356
CN1CCC(=C2c3ccccc3CCc3sccc32)CC1.O=C(O)CC(O)C(=O)O [Pizotifen Malate] | -0.94
CC(C)c1c(C(=O)Nc2ccccc2)c(-c2ccccc2)c(-c2ccc(F)cc2)n1CC[C@@H](O)C[C@@H](O)CC(=O)[O-].CC(C)c1c(C(=O)Nc2ccccc2)c(-c2ccccc2)c(-c2ccc(F)cc2)n1CC[C@@H](O)C[C@@H](O)CC(=O)[O-].[Ca+2] [Atorvastatin Calcium] | -0.249
O=C(O)[C@H](O)[C@@H](O)C(=O)O.c1cnc2cc3c(cc2n1)C1CNCC3C1 [Varenicline Tartrate] | -0.125
C[C@H](N[C@@H](CCc1ccccc1)C(=O)O)C(=O)N1CCC[C@H]1C(=O)O.O.O [Enalaprilat Dihydrate] | -0.0161
CC(C)(C)NS(=O)(=O)c1cncc(-c2cc(F)c3nc(N)nn3c2)c1 | 0.0891
COCCCN1CCC(NC(=O)c2cc(Cl)c(N)c3c2OCC3)CC1.O=C(O)CCC(=O)O [Prucalopride Succinat] | -1.28
O=C(NCCCNc1nc(Nc2cccc(NC(=O)N3CCCC3)c2)ncc1I)c1cccs1 | -0.186
Nc1c(CC(=O)[O-])cccc1C(=O)c1ccccc1.O.[Na+] [Amfenac Sodium Monohydrate] | 0.61
C[C@]12C[C@@]3(O)O[C@@H](O1)[C@]1(COC(=O)c4ccccc4)[C@H]3C[C@@]12O[C@@H]1O[C@H](CO)[C@@H](O)[C@H](O)[C@H]1O [Paeoniflorin] | 0.711
COc1ccccc1OCC(O)CO (configuration not stated) [Guaifenesin] | -0.456
CN1CCC(CNc2ccc3ncc(-c4cccc(OC(F)(F)F)c4)n3n2)CC1 [SGI-1776 free base] | 0.485
O=C(O)c1cccnc1 [Nicotinic Acid] | 0.0789
CC(=O)N[C@@H]1[C@H]([C@H](O)[C@H](O)CO)OC(C(=O)O)=C[C@@H]1NC(=N)N [Zanamivir] | -0.23
Cl.c1ccc(C2CN3CCSC3=N2)cc1 (configuration not stated) [Tetramisole HCl] | 0.379
O=C(Nc1ccc2c(=O)cc(-c3nnn[nH]3)oc2c1)c1ccc(OCCCCc2ccccc2)cc1 [Pranlukast] | 0.58
COc1ccc(-c2coc3cc(O)ccc3c2=O)cc1 [Formononetin] | -0.33
Cc1c(-c2ccc(O)cc2)n(Cc2ccc(OCCN3CCCCCC3)cc2)c2ccc(O)cc12.Cl [Bazedoxifene HCl] | 0.671
CC(C)Cc1ccc(C(C)C(=O)O)cc1.NCCCC[C@H](N)C(=O)O (configuration not stated) [Ibuprofen Lysine (NeoProfen)] | -0.835
Cc1nc2c([nH]1)-c1ccccc1N(C(=O)c1ccc(NC(=O)c3ccccc3-c3ccccc3)cc1)CC2.Cl [Conivaptan HCl] | -0.316

An excerpt of these results, as labelled records.
COCCCN1CCC(NC(=O)c2cc(Cl)c(N)c3c2OCC3)CC1.O=C(O)CCC(=O)O [Prucalopride Succinat]
  Prob-Test: -1.28
CC(C)Cc1ccc(C(C)C(=O)O)cc1.NCCCC[C@H](N)C(=O)O (configuration not stated) [Ibuprofen Lysine (NeoProfen)]
  Prob-Test: -0.835

Continuation:

SMILES | Prob-Test
CCc1ccc(OCc2ccccc2C(=O)Nc2ccc3nc(C)cc(N)c3c2)cc1.Cl | -0.197
Cc1ccc(C(=O)Nc2ccc(CN3CCN(C)CC3)c(C(F)(F)F)c2)cc1C#Cc1cnc2cccnn12 | -0.185
COc1cccc(C=NCCN=Cc2cccc(OC)c2[O-])c1[O-].[Cl-].[Mn+3] | 0.254
Cc1ccc(S(=O)(=O)NC(=O)NN2CCCCCC2)cc1 [Tolazamide] | -0.347
CN1C[C@@H]2c3ccccc3Oc3ccc(Cl)cc3[C@H]2C1.O=C(O)/C=C\C(=O)O [Asenapine] | -2.31
C[C@@H]1C[C@H]2[C@@H]3C[C@H](F)C4=CC(=O)C=C[C@]4(C)[C@]3(F)[C@H](O)C[C@]2(C)[C@@]1(O)C(=O)CO [Flumethasone] | -0.153
COc1ccc(CN(CCN(C)C)c2ccccn2)cc1.O=C(O)C=CC(=O)O [Pyrilamine Maleate] | 0.247
CC(C)(Oc1ccc(CCNC(=O)c2ccc(Cl)cc2)cc1)C(=O)O [Bezafibrate] | 0.133
COc1cc([C@H]2Oc3cc([C@@H]4Oc5cc(O)cc(O)c5C(=O)[C@@H]4O)ccc3O[C@@H]2CO)ccc1O [Silibinin] | 0.171
Nc1nc(Cl)nc2c1ncn2[C@H]1C[C@H](O)[C@@H](CO)O1 [Cladribine] | 0.863
Cc1c(Cl)cccc1Nc1ccccc1C(=O)O [Tolfenamic Acid] | -1.12
CC(CNC(=O)c1cccnc1)NC(=O)c1cccnc1 (configuration not stated) [Nicaraven] | 0.0398
Cl.c1ccc2c(CC3=NCCN3)cccc2c1 [Naphazoline HCl] | -0.558
C[C@@]12CCC3=C4CCC(=O)C=C4CC[C@H]3[C@@H]1CC[C@@]2(O)CC#N [Dienogest] | -0.798
O.O.O=c1c(O)c(-c2ccc(O)c(O)c2)oc2cc(O)cc(O)c12 [Quercetin Dihydrate] | -0.304
COc1cc(Nc2c(C#N)cnc3cc(OCCCN4CCN(C)CC4)c(OC)cc23)c(Cl)cc1Cl [Bosutinib (SKI-606)] | -0.0888
Cl.N=C(N)NCCCC(N)C(=O)O (stereo in doubt) [L-Arginine HCl] | -0.57
CN1CC[C@H](c2c(O)cc(O)c3c(=O)cc(-c4ccccc4Cl)oc23)[C@H](O)C1.Cl [Flavopiridol HCl] | -1.05
COC(=O)C1=CO[C@@H](O[C@@H]2O[C@H](CO)[C@@H](O)[C@@H](O)[C@H]2O)[C@H]2C(CO)=CC[C@H]12 [Geniposide] | 0.497
Cc1cc(Nc2cc(N3CCN(C)CC3)nc(Sc3ccc(NC(=O)C4CC4)cc3)n2)n[nH]1 [VX-680 (Tozasertib, MK-0457)] | -0.38

Copied from the list:
For Prob-Test, CN1CC[C@H](c2c(O)cc(O)c3c(=O)cc(-c4ccccc4Cl)oc23)[C@H](O)C1.Cl [Flavopiridol HCl] has the entry -1.05
For Prob-Test, CC(C)(Oc1ccc(CCNC(=O)c2ccc(Cl)cc2)cc1)C(=O)O [Bezafibrate] has the entry 0.133
